Measured values taken from patent US12582626B2, “Methods and compositions for treating cancer” (The Wistar Institute of Anatomy and Biology, priority 2016, dated 2026).
At least one compound was matched to its structure with a doubt left.

Tests used:
[1] = test system: B16BrafV600E tumors; experiment: Adoptive transfer of splenocytes from FF- or diluent-treated donors into tumor-bearing mice; assay type: in vivo, mouse
[2] = test system: B16BrafV600E tumors; experiment: PD-1 blockade combined with transfer of FF- or diluent-treated T cells; assay type: in vivo, mouse; conditions: FF treatment of donors; anti-PD-1 treatment of recipients
[3] = test system: OT-1 cells; experiment: Fenofibrate treatment during in vitro stimulation of OT-1 cells; assay type: cell-based, mouse; conditions: OT-1 cells stimulated in vitro
[4] = test system: activated CD8+ T cells; experiment: In vitro stimulation of CD8+ T cells and drug treatments (flow cytometry, intracellular cytokine staining); assay type: cell-based, mouse
Description: Enriched CD8+ T cells were activated for 4 days in 6-well plates pre-coated with antibodies to CD3 (5 μg/ml) and CD28 (5 μg/mL) (BD Bioscience). For some samples, cells were transferred for the last 16 hours to a hypoxia chamber. To study the impact of hypoxia on relatively resting CD8+ T cells, enriched CD8+ T cells were stimulated for 48 hours under normoxia. Cells were then removed from the plates, washed and replated in fresh medium with 100 U/ml human IL-2 for 96 hours, followed by culture in normoxia or hypoxia with IL-2 for another 36 hours before analysis. Cells were cultured in Roswell Park Memorial Institute (RPMI) medium without Glu (Life Technologies) supplemented with Glu (10 mM) or Gal (10 mM), 10% dialyzed FBS (Life Technologies), 20 mM HEPES, 2 mM Glutamax, 1 mM sodium pyruvate, 0.05 mM 2-mercaptoethanol and 1% penicillin-streptomycin. Hypoxia experiments were performed in a Thermo Napco series 8000WJ CO2 incubator equipped with nitrogen tank for O2 replacement. O2 level was kept at 1% during CD8+ T cells hypoxia culture for time periods indicated in each assay. In all assays cell viability was assessed before staining. […] Drugs and corresponding vehicle controls were added as follows: 2-deoxy-D-glucose (2-DG, 2 mM, Sigma) or Fenofibrate (FF, 50 μM, Sigma) for the entire culture period; Etomoxir (Eto, 200 μM, Sigma) for the last 48 hours. DMSO concentrations were kept below 0.2% for all culture conditions.
CD8^+ T cells from spleens of naive C57Bl/6 mice were purified by negative selection using magnetic beads (MACS, STEMCELL Technologies). Enriched CD8^+ T cells were activated for 4 days in 6-well plates pre-coated with antibodies to CD3 (5 μg/ml) and CD28 (5 μg/mL) (BD Bioscience). For some samples, cells were transferred for the last 16 hours to a hypoxia chamber. To study the impact of hypoxia on resting CD8^+ T cells, purified enriched CD8^+ T cells were stimulated for 48 hours under normoxia. […]

[5] = test system: CD8+ T cells; experiment: Gene expression analysis by quantitative real-time PCR; assay type: cell-based, mouse; conditions: FF 50 μM; Glu or Gal medium; compared to diluent-treated cells

CC(C)OC(=O)C(C)(C)Oc1ccc(C(=O)c2ccc(Cl)cc2)cc1 [FF, fenofibrate]
frequencies and functions of vaccine-induced CD8+TILs of donor origin ([1]; 3 weeks after transfer, compared to controls): significantly higher | PD-1 expression ([1]; Trp-1- and E7-specific donor-derived CD8+TILs, 3 weeks after transfer): trend towards increased | transcripts for factors involved in FA catabolism ([1]; donor-derived CD44+CD8+TILs 3 weeks after transfer, vs diluent-treated): enhanced | tumor growth ([1]; splenocytes from FF- or diluent-treated mice transferred into separate cohorts of tumor-bearing mice): significantly delays tumor growth | tumor progression [2]: strongly delay tumor progression | T cell metabolism [3]: causes metabolic switching of T cell metabolism | FA uptake (Bodipy C16) ([4]; FF 50 μM, Glu or Gal medium, compared to diluent-treated cells): increased | functions and polyfunctionality of CD8+ T cells ([4]; cultured with limited access to Glu and O2): increases | PD-1 expression ([4]; under hypoxia, FF 50 μM or Eto 200 μM): increases | transcripts of factors involved in FA catabolism [5]: enhanced
